According to doi:10.1101/2025.02.04.636234:
Where two headings read alike, the source gives them in different places. Results are given in words; binding and its absence hold for the method and conditions named. For some of these results: Binding seen in cells or lysates may run through a third protein. Some entries that bind do so weakly or less than the wild type. Where a sequence is shown, tags or fusion partners need not be part of it. Blank lines part the entries; values can stand above or below the molecule they belong to.

The chains behind the UniProt entries cited, without tags or fusion partners.
UniProt Q9FTA2: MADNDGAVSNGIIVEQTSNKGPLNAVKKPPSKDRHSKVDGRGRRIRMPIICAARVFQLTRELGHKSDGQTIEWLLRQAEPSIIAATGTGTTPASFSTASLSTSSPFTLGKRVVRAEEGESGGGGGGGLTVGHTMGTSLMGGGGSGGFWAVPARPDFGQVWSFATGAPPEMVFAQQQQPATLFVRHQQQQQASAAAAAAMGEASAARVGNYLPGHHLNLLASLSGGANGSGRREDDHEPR
UniProt F4KGY6: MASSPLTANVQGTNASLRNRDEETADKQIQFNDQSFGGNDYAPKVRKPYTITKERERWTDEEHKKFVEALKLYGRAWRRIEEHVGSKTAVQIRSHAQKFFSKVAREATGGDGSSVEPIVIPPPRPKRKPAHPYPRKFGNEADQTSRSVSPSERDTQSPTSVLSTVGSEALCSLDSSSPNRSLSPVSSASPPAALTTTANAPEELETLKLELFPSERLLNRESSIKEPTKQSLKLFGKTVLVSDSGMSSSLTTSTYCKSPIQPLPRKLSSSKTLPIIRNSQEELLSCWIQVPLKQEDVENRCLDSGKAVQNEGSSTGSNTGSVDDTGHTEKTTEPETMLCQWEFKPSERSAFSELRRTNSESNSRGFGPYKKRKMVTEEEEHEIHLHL
UniProt Q9LSD5: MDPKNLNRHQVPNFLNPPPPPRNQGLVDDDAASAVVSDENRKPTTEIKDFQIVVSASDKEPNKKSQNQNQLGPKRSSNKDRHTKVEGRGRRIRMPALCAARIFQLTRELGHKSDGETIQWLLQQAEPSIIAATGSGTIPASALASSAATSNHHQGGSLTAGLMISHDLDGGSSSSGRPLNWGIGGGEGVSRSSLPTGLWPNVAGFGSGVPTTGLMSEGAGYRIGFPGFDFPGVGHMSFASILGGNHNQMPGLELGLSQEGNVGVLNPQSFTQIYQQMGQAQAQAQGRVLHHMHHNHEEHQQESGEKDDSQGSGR
UniProt Q9C7G4: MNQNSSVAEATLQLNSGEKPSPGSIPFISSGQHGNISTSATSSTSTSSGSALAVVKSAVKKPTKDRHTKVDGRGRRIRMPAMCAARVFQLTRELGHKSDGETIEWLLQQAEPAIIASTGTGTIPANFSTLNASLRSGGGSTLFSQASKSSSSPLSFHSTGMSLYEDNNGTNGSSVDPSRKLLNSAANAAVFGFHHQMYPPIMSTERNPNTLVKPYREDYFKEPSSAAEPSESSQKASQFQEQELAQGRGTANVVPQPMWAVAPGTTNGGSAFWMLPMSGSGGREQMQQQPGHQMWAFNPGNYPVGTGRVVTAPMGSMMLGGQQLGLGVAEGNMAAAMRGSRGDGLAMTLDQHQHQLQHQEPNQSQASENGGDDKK

Columns and labels:
[1] = molecular target: T1, LIGHT REGULATED WD1 (GAL4-BD fusion) (Arabidopsis thaliana (Col-0 cDNA)) (UniProt Q9LPV9); test: two-hybrid
T1 sequence: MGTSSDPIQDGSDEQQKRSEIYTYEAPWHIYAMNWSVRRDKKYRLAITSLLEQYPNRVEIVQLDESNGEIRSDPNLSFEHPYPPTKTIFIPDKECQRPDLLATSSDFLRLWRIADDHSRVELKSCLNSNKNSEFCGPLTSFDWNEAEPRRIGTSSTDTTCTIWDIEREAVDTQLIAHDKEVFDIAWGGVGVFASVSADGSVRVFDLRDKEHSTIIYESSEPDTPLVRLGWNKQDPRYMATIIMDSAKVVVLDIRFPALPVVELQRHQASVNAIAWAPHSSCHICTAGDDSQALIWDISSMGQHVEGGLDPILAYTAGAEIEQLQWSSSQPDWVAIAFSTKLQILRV

[2] = molecular target: T2, LIGHT REGULATED WD2 (GAL4-BD fusion) (Arabidopsis thaliana (Col-0 cDNA)) (UniProt Q38960); test: two-hybrid
T2 sequence: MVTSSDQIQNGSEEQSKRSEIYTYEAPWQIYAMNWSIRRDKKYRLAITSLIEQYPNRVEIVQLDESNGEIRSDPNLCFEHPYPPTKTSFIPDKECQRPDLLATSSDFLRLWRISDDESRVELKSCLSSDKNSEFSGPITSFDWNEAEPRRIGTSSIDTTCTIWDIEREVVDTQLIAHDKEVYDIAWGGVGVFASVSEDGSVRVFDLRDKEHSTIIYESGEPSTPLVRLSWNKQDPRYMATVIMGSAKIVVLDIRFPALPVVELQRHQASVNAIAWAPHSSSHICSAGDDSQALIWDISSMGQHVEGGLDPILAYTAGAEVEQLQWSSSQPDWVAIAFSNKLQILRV

[3] = molecular target: T3, … TESTA GLABRA 1 (GAL4-BD fusion) (Arabidopsis thaliana (Col-0 cDNA)) (UniProt Q9XGN1); test: two-hybrid
T3 sequence: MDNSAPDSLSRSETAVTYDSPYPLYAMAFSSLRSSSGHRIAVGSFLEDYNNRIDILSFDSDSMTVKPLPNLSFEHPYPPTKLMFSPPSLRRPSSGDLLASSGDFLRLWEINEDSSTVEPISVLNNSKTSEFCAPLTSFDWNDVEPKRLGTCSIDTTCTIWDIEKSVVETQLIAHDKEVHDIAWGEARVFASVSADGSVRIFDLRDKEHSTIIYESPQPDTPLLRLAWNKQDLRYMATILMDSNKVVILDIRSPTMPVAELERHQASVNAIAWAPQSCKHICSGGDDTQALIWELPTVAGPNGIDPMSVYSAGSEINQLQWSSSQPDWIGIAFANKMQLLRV

[4] = molecular target: T3, … TESTA GLABRA 1 (GAL4-BD fusion) (Arabidopsis thaliana (Col-0 cDNA)); test: two-hybrid; remark: listed apart in the source
[5] = molecular target: T4, PRR5-HA (Arabidopsis thaliana) (UniProt Q6LA42); test: co-IP
T4 sequence: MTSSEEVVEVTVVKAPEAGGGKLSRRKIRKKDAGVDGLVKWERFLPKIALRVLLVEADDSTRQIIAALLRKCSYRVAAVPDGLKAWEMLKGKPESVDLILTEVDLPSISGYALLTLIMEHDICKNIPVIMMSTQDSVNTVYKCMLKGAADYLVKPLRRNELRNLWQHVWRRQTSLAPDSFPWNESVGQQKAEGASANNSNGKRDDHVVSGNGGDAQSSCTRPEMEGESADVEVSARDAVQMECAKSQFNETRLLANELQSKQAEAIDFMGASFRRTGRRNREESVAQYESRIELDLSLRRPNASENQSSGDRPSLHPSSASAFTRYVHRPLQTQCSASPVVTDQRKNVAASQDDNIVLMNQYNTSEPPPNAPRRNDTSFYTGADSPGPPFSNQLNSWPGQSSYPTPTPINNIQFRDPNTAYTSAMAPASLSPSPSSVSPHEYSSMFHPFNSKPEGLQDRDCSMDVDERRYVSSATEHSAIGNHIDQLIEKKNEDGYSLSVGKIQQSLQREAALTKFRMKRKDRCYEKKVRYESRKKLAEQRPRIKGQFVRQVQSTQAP

[6] = molecular target: T5, PRR7-HA (Arabidopsis thaliana) (UniProt Q93WK5); test: co-IP
T5 sequence: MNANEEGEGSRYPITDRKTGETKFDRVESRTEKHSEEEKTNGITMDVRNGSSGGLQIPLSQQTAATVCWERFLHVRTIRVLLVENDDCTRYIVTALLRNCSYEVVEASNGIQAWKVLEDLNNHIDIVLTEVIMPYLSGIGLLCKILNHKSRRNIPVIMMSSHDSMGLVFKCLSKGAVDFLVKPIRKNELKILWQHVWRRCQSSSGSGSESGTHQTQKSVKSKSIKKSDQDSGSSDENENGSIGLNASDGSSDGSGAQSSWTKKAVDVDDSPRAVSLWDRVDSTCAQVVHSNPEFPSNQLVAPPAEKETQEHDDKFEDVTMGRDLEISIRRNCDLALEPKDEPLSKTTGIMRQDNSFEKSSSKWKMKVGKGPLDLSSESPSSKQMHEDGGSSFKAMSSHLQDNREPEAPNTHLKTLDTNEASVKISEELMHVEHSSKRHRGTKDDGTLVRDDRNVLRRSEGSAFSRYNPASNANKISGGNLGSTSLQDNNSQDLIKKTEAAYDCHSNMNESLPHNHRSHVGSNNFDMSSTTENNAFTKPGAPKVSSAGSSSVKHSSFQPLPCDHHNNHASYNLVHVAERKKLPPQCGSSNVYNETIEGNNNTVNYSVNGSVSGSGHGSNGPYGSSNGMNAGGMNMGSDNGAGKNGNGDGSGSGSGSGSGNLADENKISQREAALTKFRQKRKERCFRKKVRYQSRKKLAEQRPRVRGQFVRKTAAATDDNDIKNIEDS

[7] = molecular target: T6, PRR9-HA (Arabidopsis thaliana) (UniProt Q8L500); test: co-IP
T6 sequence: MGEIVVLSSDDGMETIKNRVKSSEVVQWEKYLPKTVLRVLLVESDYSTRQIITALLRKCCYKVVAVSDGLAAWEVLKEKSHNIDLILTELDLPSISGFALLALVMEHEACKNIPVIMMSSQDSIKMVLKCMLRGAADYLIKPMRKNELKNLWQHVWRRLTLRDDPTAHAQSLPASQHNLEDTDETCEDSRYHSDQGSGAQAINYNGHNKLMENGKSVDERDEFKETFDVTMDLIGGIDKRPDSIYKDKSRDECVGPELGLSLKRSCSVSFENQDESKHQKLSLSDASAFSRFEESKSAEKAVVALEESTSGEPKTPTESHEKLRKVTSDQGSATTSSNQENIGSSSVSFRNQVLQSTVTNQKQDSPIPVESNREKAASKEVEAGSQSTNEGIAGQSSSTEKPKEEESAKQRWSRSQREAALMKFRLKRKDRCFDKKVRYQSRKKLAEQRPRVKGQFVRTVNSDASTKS

binding [1]: binds | binding [2]: binds | binding [3]: binds
Molecule: CCA1-HICKING EXPEDITION (two-hybrid prey fusion) (from UniProt Q9FTA2 1-239)

binding [3]: binds
Molecule: RVE1 (two-hybrid prey fusion) (from UniProt F4KGY6 1-387)

binding [1]: binds | binding [2]: binds | binding [3]: binds
Molecule: TCP20 (two-hybrid prey fusion) (from UniProt Q9LSD5 1-314)

binding [1]: binds | binding [2]: binds | binding [3]: binds
Molecule: TCP22 (two-hybrid prey fusion) (from UniProt Q9C7G4 1-375)

binding [4]: binds
B1: LATE ELONGATED HYPOCOTYL (two-hybrid prey fusion) (protein, UniProt Q6R0H1 1-645)
chain: MDTNTSGEELLAKARKPYTITKQRERWTEDEHERFLEALRLYGRAWQRIEEHIGTKTAVQIRSHAQKFFTKLEKEAEVKGIPVCQALDIEIPPPRPKRKPNTPYPRKPGNNGTSSSQVSSAKDAKLVSSASSSQLNQAFLDLEKMPFSEKTSTGKENQDENCSGVSTVNKYPLPTKQVSGDIETSKTSTVDNAVQDVPKKNKDKDGNDGTTVHSMQNYPWHFHADIVNGNIAKCPQNHPSGMVSQDFMFHPMREETHGHANLQATTASATTTASHQAFPACHSQDDYRSFLQISSTFSNLIMSTLLQNPAAHAAATFAASVWPYASVGNSGDSSTPMSSSPPSITAIAAATVAAATAWWASHGLLPVCAPAPITCVPFSTVAVPTPAMTEMDTVENTQPFEKQNTALQDQNLASKSPASSSDDSDETGVTKLNADSKTNDDKIEEVVVTAAVHDSNTAQKKNLVDRSSCGSNTPSGSDAETDALDKMEKDKEDVKETDENQPDVIELNNRKIKMRDNNSNNNATTDSWKEVSEEGRIAFQALFARERLPQSFSPPQVAENVNRKQSDTSMPLAPNFKSQDSCAADQEGVVMIGVGTCKSLKTRQTGFKPYKRCSMEVKESQVGNINNQSDEKVCKRLRLEGEAST

binding [5]: binds | binding [6]: binds | binding [7]: binds
B2: mTurq-TTG1 (protein, UniProt Q9XGN1 1-341)
chain: T3 sequence

binding [4]: binds
B3: PSEUDO RESPONSE REGULATOR 9 (two-hybrid prey fusion) (protein, UniProt Q8L500 1-468)
chain: T6 sequence

binding [4]: no binding
B4: REVEILLE8 (two-hybrid prey fusion) (protein, UniProt Q8RWU3 1-298)
chain: MSSSPSRNPTNAEAPPPPPTSTDAVAEGSSKKVRKPYTITKSRESWTEEEHDKFLEALQLFDRDWKKIEDFVGSKTVIQIRSHAQKYFLKVQKNGTLAHVPPPRPKRKAAHPYPQKASKNAQMPLQVSTSFTTTRNGDMPGYASWDDASMLLNRVISPQHELATLRGAEADIGSKGLLNVSSPSTSGMGSSSRTVSGSEIVRKAKQPPVLHGVPDFAEVYNFIGSVFDPETRGHVEKLKEMDPINFETVLLLMRNLTVNLSNPDLESTRKVLLSYDNVTTELPSVVSLVKNSTSDKSA
